# From article PMC5731927
# Amino acid sequences for entries named in this document (tags omitted).
# UniProt Q92831: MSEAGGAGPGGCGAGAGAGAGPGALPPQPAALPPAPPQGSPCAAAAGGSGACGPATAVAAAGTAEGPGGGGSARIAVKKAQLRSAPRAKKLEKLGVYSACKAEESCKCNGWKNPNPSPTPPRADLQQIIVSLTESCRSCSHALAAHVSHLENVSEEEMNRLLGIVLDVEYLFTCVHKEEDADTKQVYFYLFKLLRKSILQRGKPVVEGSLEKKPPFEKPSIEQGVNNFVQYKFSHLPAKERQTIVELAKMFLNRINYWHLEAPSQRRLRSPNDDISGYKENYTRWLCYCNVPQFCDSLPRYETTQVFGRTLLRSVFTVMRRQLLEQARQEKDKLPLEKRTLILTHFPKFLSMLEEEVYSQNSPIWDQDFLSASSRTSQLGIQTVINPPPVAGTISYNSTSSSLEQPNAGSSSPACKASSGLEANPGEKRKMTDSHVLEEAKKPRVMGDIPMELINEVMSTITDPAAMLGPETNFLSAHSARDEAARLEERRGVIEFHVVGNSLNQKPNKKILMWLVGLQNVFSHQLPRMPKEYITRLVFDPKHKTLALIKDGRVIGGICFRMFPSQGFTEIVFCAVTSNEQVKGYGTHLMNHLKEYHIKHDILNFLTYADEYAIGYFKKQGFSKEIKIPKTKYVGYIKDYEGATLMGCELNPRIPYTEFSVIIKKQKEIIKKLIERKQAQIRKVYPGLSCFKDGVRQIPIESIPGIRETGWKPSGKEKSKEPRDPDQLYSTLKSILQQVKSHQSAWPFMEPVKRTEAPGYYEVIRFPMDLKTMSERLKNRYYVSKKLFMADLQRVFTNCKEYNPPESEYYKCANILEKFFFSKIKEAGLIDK
# UniProt P08151: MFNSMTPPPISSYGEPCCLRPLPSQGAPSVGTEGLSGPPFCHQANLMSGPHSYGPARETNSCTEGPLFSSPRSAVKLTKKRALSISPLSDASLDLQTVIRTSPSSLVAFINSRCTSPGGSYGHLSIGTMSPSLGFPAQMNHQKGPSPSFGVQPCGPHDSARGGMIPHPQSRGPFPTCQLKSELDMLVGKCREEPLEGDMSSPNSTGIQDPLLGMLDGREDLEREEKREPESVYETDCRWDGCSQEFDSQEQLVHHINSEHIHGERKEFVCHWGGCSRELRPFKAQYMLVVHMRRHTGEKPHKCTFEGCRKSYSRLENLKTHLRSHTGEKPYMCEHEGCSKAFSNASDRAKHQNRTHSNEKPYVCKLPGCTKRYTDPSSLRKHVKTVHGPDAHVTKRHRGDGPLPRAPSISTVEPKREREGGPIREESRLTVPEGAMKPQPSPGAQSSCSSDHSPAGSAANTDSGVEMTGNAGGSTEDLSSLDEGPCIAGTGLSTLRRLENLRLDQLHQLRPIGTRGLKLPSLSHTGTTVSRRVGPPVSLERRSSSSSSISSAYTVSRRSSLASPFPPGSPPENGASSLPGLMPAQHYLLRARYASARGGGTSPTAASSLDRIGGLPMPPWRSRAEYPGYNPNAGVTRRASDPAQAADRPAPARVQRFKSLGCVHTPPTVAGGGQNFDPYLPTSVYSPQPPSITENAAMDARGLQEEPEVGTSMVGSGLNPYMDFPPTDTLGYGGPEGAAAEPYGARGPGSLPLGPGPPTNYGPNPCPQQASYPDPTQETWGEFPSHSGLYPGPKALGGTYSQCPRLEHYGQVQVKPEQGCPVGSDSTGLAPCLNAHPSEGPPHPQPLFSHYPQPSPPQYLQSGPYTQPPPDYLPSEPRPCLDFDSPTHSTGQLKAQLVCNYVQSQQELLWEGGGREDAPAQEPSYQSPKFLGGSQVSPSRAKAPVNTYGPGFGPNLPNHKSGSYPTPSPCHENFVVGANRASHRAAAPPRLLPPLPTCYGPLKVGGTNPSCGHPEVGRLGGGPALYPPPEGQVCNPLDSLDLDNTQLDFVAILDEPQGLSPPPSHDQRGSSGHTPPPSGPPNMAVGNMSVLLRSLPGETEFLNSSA
# No constants are given. Whether binding was seen depends on the method and setting. Binding seen in cells or lysates may run through a third protein. Some binding calls cover weakened binding; strength is not graded here.
# Biological target: PCAF (human (endogenous in HCT116)) (UniProt Q92831)
# Test: co-IP; HCT116 cell lysates (cells with or without genipin) immunoprecipitated with anti-PCAF, anti-β-TrCP or anti-ITCH antibodies overnight at 4°C, protein G agarose beads, immunoblotted with an anti-GLI1 antibody
substance,measurement,value
GLI1 (from UniProt P08151 1-1106),binding,binds
